Data from PubChem BioAssay AID493014 (National Center for Advancing Translational Sciences (NCATS), 2011).
The other results are listed elsewhere or left out. Shown are side measurements of this screen, not its main read-out; they come without a call. Most of these compounds were active or inconclusive in the main read-out, so they are no random draw. Words in brackets tell the shape of the fitted curve; partial curves, single points and poor fits give uncertain potencies.

Assay: qHTS Assay to Find Inhibitors of Chronic Active B-Cell Receptor Signaling
Conditions: ABC-DLBCL IkBa-CBG/CBR reporter, luminescence ratio (green luciferase fused to IkBa over red control in TMD8 lymphoma cells), 4 h
Procedure, shortened: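 Doxycycline induced both beetle luciferases in TMD8 lymphoma cells; IKK-driven degradation limits the IkappaBalpha-fused green signal, while red luminescence normalises for cell number and nonspecific effects. Compounds tested up to 46 uM, 4 hrs.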

[1] = measured here: CBR red luminescence, cell number
[2] = measured here: IkBa-CBG green luminescence

| Compound | AC50 [1] | AC50 [2] |
| --- | --- | --- |
| Cc1ccc(-n2[nH]c(C)c(/C=N/n3c(C)nc4ccccc4c3=O)c2=O)cc1 | 14.1 µM [falling, partial curve] | – |
| CCC(=O)N1c2ccccc2NC2=C(C(=O)CCC2)C1c1ccc(N(C)C)cc1 (configuration not stated) | 12.6 µM [rising, single point] | – |
| Cc1ccc(S(=O)(=O)N2CCN(C(=O)Cc3sc(C)nc3-c3ccc(F)cc3)CC2)c(C)c1 | 8.2 µM [falling, partial curve, poor fit] | – |
| Cc1nc2ccc(NC(=O)c3ccc([N+](=O)[O-])cc3)cc2[nH]1 | 1 µM [rising, full curve, poor fit] | – |
| COc1ccccc1N1CCN(C(=O)CC(NC(=O)c2ccccc2Cl)c2ccccc2)CC1 (configuration not stated) | 1.46 µM [rising, full curve, poor fit] | – |
| O=C1CSc2ccc(C(=O)Nc3cccc(S(=O)(=O)Nc4ccc(Br)cc4)c3)cc2N1 | 15.8 µM [falling, partial curve] | 28.2 µM [rising, partial curve, poor fit] |
| CC(=O)CCC(=O)c1ccc2ccccc2c1 | 2.31 µM [rising, full curve, poor fit] | – |
| CS(=O)c1nc(-c2ccc(Br)cc2)cc(-c2ccccc2)c1C#N (configuration not stated) | 0.651 µM [falling, full curve] | – |
| O=C(Nc1ccccc1)n1ccc(-c2ccc(-n3ccnc3)cc2)n1 | 15.8 µM [falling, partial curve, poor fit] | – |
| O=C(Nc1ccccc1F)C(=O)Nc1cccc2ccccc12 | 1.41 µM [falling, full curve] | – |
| O=C(Nc1nc(-c2cccs2)cs1)c1ccc(S(=O)(=O)N2CCCC2)cc1 | 17.8 µM [falling, single point] | – |
| CCOc1ccccc1NC(=O)CSc1nc2ccccc2nc1N1CCOCC1 | 5.62 µM [falling, partial curve, poor fit] | – |
| COc1ccc(NC(=O)c2cc(Cl)ccc2NC(=O)c2ccco2)c(OC)c1 | 0.411 µM [falling, partial curve, poor fit] | – |
| Cc1ccccc1Nc1ncnc2c1cnn2-c1ccccc1 | 20.6 µM [falling, partial curve, poor fit] | – |
| COc1ccc(CCc2nnc(N)s2)cc1OC | 35.5 µM [rising, single point] | – |
| Nc1nc(N)nc(-c2ccc(Cl)cc2)n1 | 32.6 µM [falling, single point] | – |
| COc1ccc2c(c1OC)C(=O)OC2 | 35.5 µM [rising, single point] | – |
| O=[N+]([O-])c1ccc(Nc2cccc(F)c2)nc1 | 20 µM [rising, partial curve, poor fit] | – |
| COc1ccc(-c2cn3c(C)c(C(=O)N4CCN(c5ccc(F)cc5)CC4)sc3n2)cc1 | 23.1 µM [falling, single point] | – |
| CN=C(Nc1ccc(C(=O)OC)s1)c1ccc(Cl)cc1 | 35.5 µM [falling, single point] | – |
| CC(C)=CC(=O)OCC(=O)Nc1cc([N+](=O)[O-])ccc1F | 0.731 µM [rising, full curve, poor fit] | – |

Among those listed so far, these contain bromine.

| Compound | AC50 [1] | AC50 [2] |
| --- | --- | --- |
| O=C1CSc2ccc(C(=O)Nc3cccc(S(=O)(=O)Nc4ccc(Br)cc4)c3)cc2N1 | 15.8 µM [falling, partial curve] | 28.2 µM [rising, partial curve, poor fit] |
| CS(=O)c1nc(-c2ccc(Br)cc2)cc(-c2ccccc2)c1C#N (configuration not stated) | 0.651 µM [falling, full curve] | – |

Later entries.

| Compound | AC50 [1] | AC50 [2] |
| --- | --- | --- |
| Cc1ccc2c(CC(=O)OCc3cc(=O)n4c(n3)sc3ccccc34)coc2c1 | 35.5 µM [falling, single point] | – |
| COc1cc(OC)cc(C(=O)NC(=S)NCCc2ccccc2)c1 | 3.98 µM [falling, partial curve, poor fit] | – |
| O=C(O)CC12CC3CC(C1)CC(n1ncc(NCc4ccc(F)cc4)c(Cl)c1=O)(C3)C2 | 0.562 µM [rising, full curve, poor fit] | – |
| CCOC(=O)N1CC=C2C(C#N)=C(N)C(C#N)(C#N)[C@H](c3ccc(OC(C)C)c(OCC)c3)[C@H]2C1 | 18.4 µM [falling, single point] | – |
| S=C(NCc1ccco1)Nc1ccc(Cl)c(Cl)c1 | 31.6 µM [falling, single point] | – |
| Cc1cc(O)c(C(C)C)cc1NC(=O)c1ccc(Cl)cc1 | 6.31 µM [rising, partial curve, poor fit] | – |
| O=C(NCCO)C(O)C(O)C(=O)NCCO (configuration not stated) | 35.5 µM [falling, single point] | – |
| CNCCCOc1ccc(C)cc1Br | – | 10.3 µM [rising, partial curve, poor fit] |
| c1ccc2oc(SCc3cn4ccccc4n3)nc2c1 | 0.291 µM [falling, full curve, poor fit] | – |
| Cc1nc2ccccc2c(=O)n1NC(=O)c1ccc(Cl)c([N+](=O)[O-])c1 | 6.31 µM [falling, partial curve] | – |
| CCOc1cc(/C=N/NC(=O)c2nn(C)cc2Br)ccc1OCc1ccccc1Cl | 20.6 µM [falling, partial curve, poor fit] | – |
| Cc1ccccc1NC(=O)NCCc1c[nH]c2ccccc12 | 1.78 µM [falling, full curve] | – |
| COc1ccc(-c2cc(C)no2)cc1S(=O)(=O)N1CCN(c2cccc(C)c2)C(C)C1 (configuration not stated) | 17.8 µM [falling, single point] | – |
| COc1cc(OC)cc(-c2nnc(SCc3cccnc3)o2)c1 | 3.16 µM [falling, full curve, poor fit] | – |
| Cc1ccc(S(=O)(=O)NC2OC(=O)C(Cl)=C2Cl)cc1 (configuration not stated) | 6.51 µM [falling, single point] | – |
| O=C1C(N2CCOCC2)=C(n2nnc3ccccc32)C(=O)c2ccccc21 | 3.26 µM [falling, full curve] | – |
| O=C(CSc1ccc(Cl)cc1)Nc1ccc(N2CCN(C(=O)c3ccco3)CC2)cc1 | 0.82 µM [falling, full curve, poor fit] | – |
| CC(C)NC(=O)c1ccc2c(c1)N(CC(=O)N1CCOCC1)C(=O)C(C)(C)O2 | 10 µM [rising, partial curve, poor fit] | – |
| O=C1c2ccccc2-c2c1cccc2C(=O)N1CCOCC1 | 11.6 µM [rising, partial curve, poor fit] | – |
| Cc1ccc(C(=O)CCC(=O)Nc2ccccc2C)c(C)c1 | 10 µM [falling, partial curve, poor fit] | – |
